Results taken from US20060281736A1, “Product comprising at least one phosphatase cdc25 inhibitor combined with at least one other anticancer agent” (priority 2003, published 2006).
Some results were stated once for a whole list of compounds, not compound by compound.

Legend:
[1] = test system: Mia-PaCa2 (human pancreas cancer cells); assay: Antiproliferative activity on Mia-Paca2 cells (WST1); format: cell-based; conditions: 96 hours treatment; read-out: IC50 on the cell proliferation of Mia-Paca2 lines
Description: ii) Characterization of the Antiproliferative Activity:
By way of example, the effect of a treatment on two human cell lines Mia-Paca2 and DU145 with the compounds of the examples described previously will be studied. The cell lines DU145 (human prostate cancer cells) and Mia-PaCa2 (human pancreas cancer cells) were acquired from the American Tissue Culture Collection (Rockville, Md., USA). The cells placed in 80 μl of Dulbecco's Modified Eagle's medium (Gibco-Brl, Cergy-Pontoise, France) completed with 10% foetal calf serum inactivated by heating (Gibco-Brl, Cergy-Pontoise, France), 50,000 units/l of penicillin and 50 mg/l of streptomycin (Gibco-Brl, Cergy-Pontoise, France), and 2 mM of glutamine (Gibco-Brl, Cergy-Pontoise, France) were seeded on a 96-well plate on day 0. The cells were treated on day 1 for 96 hours with increasing concentrations of each of the compounds to be tested up to 10 μM. At the end of this period, quantification of cell proliferation is evaluated by a colorimetric test based on the cleavage of the tetrazolium salt WST1 by the mitochondrial dehydrogenases in viable cells leading to the formation of formazan (Boehringer Mannheim, Meylan, France). These tests are carried out in duplicate with 8 determinations per concentration tested. For each compound to be tested, the values included in the linear part of the sigmoid were retained for a linear regression analysis and used to estimate the inhibitory concentration IC50. The products are solubilized in dimethylsulphoxide (DMSO) at 10^−2 M and finally used in culture with 0.1% DMSO.

[2] = target: T1, MBP-Cdc25C protein (Homo sapiens, UniProt P30307); assay: Phosphatase activity of the purified Cdc25C recombinant enzyme (OMFP dephosphorylation); format: biochemical; conditions: OMFP 500 μM, 4 hours at 30° C.; read-out: IC50 on the phosphatase activity of the purified Cdc25-C recombinant enzyme
T1 construct: made in house
T1 sequence (P30307 1-473): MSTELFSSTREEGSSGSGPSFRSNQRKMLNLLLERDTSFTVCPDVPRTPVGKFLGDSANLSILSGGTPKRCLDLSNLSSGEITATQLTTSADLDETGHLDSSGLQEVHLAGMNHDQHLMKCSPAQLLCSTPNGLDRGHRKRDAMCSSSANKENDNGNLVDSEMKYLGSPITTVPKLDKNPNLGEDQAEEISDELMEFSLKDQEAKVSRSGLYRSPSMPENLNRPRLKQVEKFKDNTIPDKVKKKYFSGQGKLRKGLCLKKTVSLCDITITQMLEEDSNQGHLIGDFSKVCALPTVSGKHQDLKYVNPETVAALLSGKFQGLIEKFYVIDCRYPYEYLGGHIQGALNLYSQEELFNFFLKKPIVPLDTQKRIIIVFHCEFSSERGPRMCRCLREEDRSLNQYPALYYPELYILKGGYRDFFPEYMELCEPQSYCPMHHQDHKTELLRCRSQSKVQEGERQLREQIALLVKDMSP

Row | Substance | IC50 [1] [µM] | IC50 [2] [µM]
1 | Mixture of 2-(2-bromophenyl)-5-{[2-(dimethylamino)ethyl]amino}-1,3-benzoxazole-4,7-dione and 2-(2-bromophenyl)-6-{[2-(dimethylamino)ethyl]amino}-1,3-benzoxazole-4,7-dione [Example 68] | ≤ 10 | ≤ 10
2 | Mixture of 2-[4-(diethylamino)phenyl]-5-{[2-(dimethylamino)ethyl]amino)-1,3-benzoxazole-4,7-dione and 2-[4-(diethylamino)phenyl]-6-{[2-(dimethylamino)ethyl]amino}-1,3-benzoxazole-4,7-dione [Example 61] | ≤ 10 | ≤ 10
3 | Mixture of 5-{[2-(dimethylamino)ethyl]amino}-2-phenyl-1,3-benzoxazole-4,7-dione and 6-{[2-(dimethylamino)ethyl]amino}-2-phenyl-1,3-benzoxazole-4,7-dione [Example 57] | ≤ 10 | ≤ 10
4 | Mixture of 2-(2,5-difluorophenyl)-5-{[2-(dimethylamino)ethyl]amino}-1,3-benzoxazole-4,7-dione and 2-(2,5-difluorophenyl)-6-{[2-(dimethylamino)ethyl]amino}-1,3-benzoxazole-4,7-dione [Example 83] | ≤ 10 | ≤ 10
5 | Mixture of 2-[2-chloro-5-(trifluoromethyl)phenyl]-5-{[2-(dimethylamino)ethyl]amino}-1,3-benzoxazole-4,7-dione and 2-[2-chloro-5-(trifluoromethyl)phenyl]-6-{[2-(dimethylamino)ethyl]amino}-1,3-benzoxazole-4,7-dione [Example 94] | ≤ 10 | ≤ 10
6 | 5-anilino-2-ethyl-1,3-benzoxazole-4,7-dione or 6-anilino-2-ethyl-1,3-benzoxazole-4,7-dione [Example 15] | ≤ 10 | ≤ 10
7 | Mixture of 2-(4-fluorophenyl)-5-[(2-pyrrolidin-1-ylethyl)amino]-1,3-benzoxazole-4,7-dione and 2-(4-fluorophenyl)-6-[(2-pyrrolidin-1-lethyl)amino]-1,3-benzoxazole-4,7-dione [Example 76] | ≤ 10 | ≤ 10
8 | 5-[[2-(dimethylamino)ethyl](ethyl)amino]-2-methyl-1,3-benzothiazole-4,7-dione [Example 114] | ≤ 10 | ≤ 10
9 | Mixture of 2-[2-chloro-5-(trifluoromethyl)phenyl]-5-[(2-pyrrolidin-1-ylethyl)amino]-1,3-benzoxazole-4,7-dione and 2-[2-chloro-5-(trifluoromethyl)phenyl]-6-[(2-pyrrolidin-1-ylethyl)amino]-1,3-benzoxazole-4,7-dione [Example 95] | ≤ 10 | ≤ 10
10 | Mixture of 5-{[3-(dimethylamino)propyl]amino)-2-(4-fluorophenyl)-1,3-benzoxazole-4,7-dione and 6-{[3-(dimethylamino)propyl]amino}-2-(4-fluorophenyl)-1,3-benzoxazole-4,7-dione [Example 79] | ≤ 10 | ≤ 10
11 | Mixture of 2-(4-fluorophenyl)-5-[(2-pyrrolidin-1-ylethyl)amino]-1,3-benzothiazole-4,7-dione and 2-(4-fluorophenyl)-6-[(2-pyrrolidin-1-ylethyl)amino]-1,3-benzothiazole-4,7-dione [Example 110] | ≤ 10 | ≤ 10
12 | Mixture of 2-(4-bromophenyl)-5-[(2-pyrrolidin-1-ylethyl)amino]-1,3-benzoxazole-4,7-dione and 2-(4-bromophenyl)-6-[(2-pyrrolidin-1-ylethyl)amino]-1,3-benzoxazole-4,7-dione [Example 74] | ≤ 10 | ≤ 10
13 | Mixture of 5-{[2-(dimethylamino)ethyl]amino}-2-[2-fluoro-6-(trifluoromethyl)phenyl]-1,3-benzoxazole-4,7-dione and 6-{[2-(dimethylamino)ethyl]amino)-2-[2-fluoro-6-(trifluoromethyl)phenyl]-1,3-benzoxazole-4,7-dione [Example 91] | ≤ 10 | ≤ 10
14 | Mixture of 2-(2,3-difluorophenyl)-5-[(2-pyrrolidin-1-ylethyl)amino]-1,3-benzoxazole-4,7-dione and 2-(2,3-difluorophenyl)-6-[(2-pyrrolidin-1-ylethyl)amino]-1,3-benzoxazole-4,7-dione [Example 85] | ≤ 10 | ≤ 10
15 | Mixture of 2-(4-chlorophenyl)-5-{[2-(dimethylamino)ethyl]amino}-1,3-benzoxazole-4,7-dione and 2-(4-chlorophenyl)-6-{[2-(dimethylamino)ethyl]amino}-1,3-benzoxazole-4,7-dione [Example 63] | ≤ 10 | ≤ 10
16 | Mixture of 2-(2,5-difluorophenyl)-5-[(2-pyrrolidin-1-ylethyl)amino]-1,3-benzoxazole-4,7-dione and 2-(2,5-difluorophenyl)-6-[(2-pyrrolidin-1-ylethyl)amino]-1,3-benzoxazole-4,7-dione [Example 82] | ≤ 10 | ≤ 10
17 | Mixture of 5-{[2-(dimethylamino)ethyl]amino}-2-(2,3,4,5-tetrafluorophenyl)-1,3-benzoxazole-4,7-dione and 6-{[2-(dimethylamino)ethyl]amino}-2-(2,3,4,5-tetrafluorophenyl)-1,3-benzoxazole-4,7-dione [Example 90] | ≤ 10 | ≤ 10
18 | Mixture of 2-(2,3-difluorophenyl)-5-{[3-(dimethylamino)propyl]amino}-1,3-benzoxazole-4,7-dione and 2-(2,3-difluorophenyl)-6-{[3-(dimethylamino)propyl]amino}-1,3-benzoxazole-4,7-dione [Example 86] | ≤ 10 | ≤ 10
19 | Mixture of 2-cyclohexyl-5-[(2-pyrrolidin-1-ylethyl)amino]-1,3-benzothiazole-4,7-dione and 2-cyclohexyl-6-[(2-pyrrolidin-1-ylethyl)amino]-1,3-benzothiazole-4,7-dione [Example 101] | ≤ 10 | ≤ 10
20 | Mixture of 5-[(2-pyrrolidin-1-ylethyl)amino]-2-thien-2-yl-1,3-benzothiazole-4,7-dione and 6-[(2-pyrrolidin-1-ylethyl)amino]-2-thien-2-yl-1,3-benzothiazole-4,7-dione [Example 103] | ≤ 10 | ≤ 10
21 | 6-chloro-5-{[2-(dimethylamino)ethyl]amino}-2-ethyl-1,3-benzoxazole-4,7-dione or 5-chloro-6-{[2-(dimethylamino)ethyl]amino}-2-ethyl-1,3-benzoxazole-4,7-dione [Example 53] | ≤ 10 | ≤ 10
22 | Mixture of 2-(2,5-dichlorothien-3-yl)-5-{[2-(dimethylamino)ethyl]amino}-1,3-benzothiazole-4,7-dione and 2-(2,5-dichlorothien-3-yl)-6-[{2-(dimethylamino)ethyl]amino}-1,3-benzothiazole-4,7-dione [Example 104] | ≤ 10 | ≤ 10
23 | 5-{[4-(dimethylamino)butyl]amino}-2-ethyl-1,3-benzoxazole-4,7-dione or 6-{[4-(dimethylamino)butyl]amino}-2-ethyl-1,3-benzoxazole-4,7-dione [Example 45] | ≤ 10 | ≤ 10
24 | Mixture of 2-(2-fluorophenyl)-5-[(2-pyrrolidin-1-ylethyl)amino]-1,3-benzoxazole-4,7-dione and 2-(2-fluorophenyl)-6-[(2-pyrrolidin-1-ylethyl)amino]-1,3-benzoxazole-4,7-dione [Example 67] | ≤ 10 | ≤ 10
25 | Mixture of 2-(4-chlorophenyl)-5-{[3-(dimethylamino)propyl]amino}-1,3-benzoxazole-4,7-dione and 2-(4-chlorophenyl)-6-{[3-(dimethylamino)propyl]amino}-1,-benzoxazole-4,7-dione [Example 64] | ≤ 10 | ≤ 10
